Values quoted from earlier work as cited in patent US12303570B2, “Compositions and methods for assessing eye vasculature” (MediBeacon Inc., priority 2015, dated 2025).
At least one structure is not confirmed: it was looked up by name or label, or the drawing left a doubt.

Details: cited from earlier work

O=C1OC2(c3ccc(O)cc3Oc3cc(O)ccc32)c2ccccc21 [Sodium fluorescein]
light absorption peak: ~490 nm
